In PubChem BioAssay AID2685 (National Center for Advancing Translational Sciences (NCATS), 2010) one finds cell number change and AC50 data, which are given here for 37 compounds.

Some of the results follow. These are further read-outs of the screen, such as a control signal, another cell line or another target. No call is given for them. The list favours compounds with an active or inconclusive main result. Words in brackets tell the shape of the fitted curve; partial curves, single points and poor fits give uncertain potencies.

This assay can be described thus: qHTS Assay for Lipid Storage Modulators in Drosophila S3 Cells.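 For cell number change: cells counted by Cell Tracker Red CMTPX staining in the red channel.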 Conditions: BODIPY lipid droplet fluorescence, 18-24 h; for cell number change: measured here: cell count max response, cells fed with added oleic acid. The essentials:
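Laser-scanning cytometry quantifies lipid droplet accumulation (500–530 nm total intensity; droplet/cell object ratio) in oleic acid-fed (400 uM added) Drosophila S3 cells treated with a concentration series. 20 uM Triacsin C defined 100% inhibition.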

Where [1] appears, read: measured here: cell number channel AC50, cells fed with added oleic acid.
Where [2] appears, read: measured here: lipid fluorescence (Fed channel) AC50, cells fed with added oleic acid.

As a reminder, the AC50 is the concentration giving half of the maximal activity seen. Take `CCSc1nnc(NC(=O)c2csc3c2CCCC3)s1`: the cell number change was -12.9%. Moreover, the AC50 under setting [1] is 0.184 µM [falling, full curve, poor fit]. Moreover, the AC50 under setting [2] was 29.1 µM [falling, partial curve].
For `CCOC(=O)N1CCN(S(=O)(=O)c2c(C(=O)N3CCCCC3)c(C)n(C)c2C)CC1`, the cell number change was determined as 23%. The AC50 under setting [1] is 6.51 µM [falling, single point].
`Cc1ccc(/C=C/C(=O)NCc2cccs2)o1`: the cell number change was 18.8%. Also, under setting [2], the AC50 is 29.1 µM [rising, single point].
With `O=C(CCS(=O)(=O)Cc1ccc(Cl)cc1)NCCCN1CCN(c2ccccc2F)CC1`, the AC50 under setting [1] is 6.51 µM [rising, single point].
As for `Cc1ccc2sc(N(CCCN(C)C)C(=O)c3ccc(S(=O)(=O)N(C)C)cc3)nc2c1C`, the cell number change is -13.1%. Besides, the AC50 under setting [2] was 11.6 µM [falling, single point].
Turning to `O=C(O)c1ccccc1NC(=S)NC(=O)c1cccc2ccccc12`, the AC50 under setting [2] was 2.31 µM [falling, single point].
In the case of `COc1ccccc1C(=O)Nc1sc2c(c1C#N)CCC2`, the cell number change is -14.1%. Further, the AC50 under setting [2] was 6.51 µM [falling, single point].
Regarding `C/C(=N\Nc1ccccn1)c1ccc(N2CCOCC2)cc1`, the cell number change was found to be 51%. Further, under setting [1], the AC50 is 2.06 µM [rising, full curve]. The AC50 under setting [2] is 29.1 µM [rising, single point].
For `CC1CN(C(=O)Nc2ccc(Br)cc2Cl)CC(C)O1` (centres undefined), the cell number change worked out at 18.1%. Besides, the AC50 under setting [2] is 0.562 µM [falling, single point].
In the case of `CCn1cc(/C=C/C(=O)Nc2c(C)nn(Cc3ccccc3)c2C)cn1`, the cell number change worked out at 16.7%. For the same compound, the half-maximal activity concentration (AC50) under setting [1] was 3.66 µM [rising, single point].
As for `COc1ccc(C2=Nn3c(nnc3C(F)(F)F)SC2)cc1`, the cell number change is 5.71%. Moreover, under setting [2], the AC50 was 0.00461 µM [falling, full curve, poor fit].
In the case of `COc1cc2c(cc1OC)[C@@H]1O[C@](CCCCN3C(=O)c4ccccc4C3=O)(C2)Oc2cc(C)n(-c3ccccc3)c(=O)c21`, the cell number change is -17.2%.
Regarding `Cc1cc(C(=O)Nc2ccc3c(c2)OCCO3)c(C)o1`, the cell number change worked out at 20.7%. Moreover, the AC50 under setting [2] is 3.26 µM [falling, partial curve].
Consider `CCOCCCN(C(=O)c1snc(C(N)=O)c1N)C(C(=O)NC1CCCC1)c1ccc(F)cc1` (centres undefined), for which the cell number change was -1.32%.
On to `O=C(c1cccc(Cl)c1)N(Cc1cccs1)C1CCS(=O)(=O)C1` (centres undefined), for which the cell number change was -4.46%. For the same compound, the AC50 under setting [1] is 0.651 µM [falling, full curve, poor fit]. In addition, the AC50 under setting [2] was 0.13 µM [falling, full curve, poor fit].
`CCCNC(=O)OC[C@H]1O[C@H](CCO/N=C/C[C@@H]2C=C[C@H](OC(C)=O)[C@@H](COC(C)=O)O2)C=C[C@@H]1Oc1ccc(OC)cc1`: the cell number change was -30.3%. Also, under setting [1], the concentration at half-maximal activity (AC50) is 29.1 µM [falling, single point]. In addition, the AC50 under setting [2] was 29.1 µM [falling, single point].
As to `O=C1CSC(c2ccccc2F)N1CCN1CCCCC1` (centres undefined), the cell number change turned out to be 3.28%. Moreover, the AC50 under setting [1] is 0.58 µM [rising, single point].
For `COc1ccccc1C1=NN(C2=NN=C(N)Cc3ncnn32)C(O)(C(F)(F)F)C1` (centres undefined), the cell number change stood at 72.7%. The AC50 under setting [1] is 16.4 µM [rising, partial curve]. Also, the AC50 under setting [2] is 20.6 µM [rising, partial curve].
For `O=C(Nc1ccc(N2CCCC2)cc1)c1cccc(Cl)c1`, the cell number change stood at 16.9%. Moreover, the AC50 under setting [2] is 0.0651 µM [rising, full curve, poor fit].
With `Cc1ccc(C(=O)Nc2ccc(N3CCN(C)CC3)cc2)cc1`, the cell number change worked out at 11.6%.
`O=C(O)C1CC(O)CN1C(=O)c1ccco1` (centres undefined): the cell number change is -36.6%. Further, under setting [1], the AC50 is 8.2 µM [falling, partial curve]. Further, the AC50 under setting [2] is 13 µM [falling, partial curve].
Consider `Cc1ccc(S(=O)(=O)N2CCCN(C(=O)CNC(=O)c3ccccc3)CC2)cc1`, for which the cell number change was -0.803%.
As to `COc1ccc(CCNc2ccc(C(CC(N)=O)NC(=O)c3cc(C)cc(C)c3)cc2[N+](=O)[O-])cc1` (centres undefined), the cell number change is 3.59%. The AC50 under setting [2] is 0.651 µM [rising, single point].
As to `CCn1c(NN)nc2sc3c(c2c1=O)CCC3`, the cell number change was determined as 91.4%. The AC50 under setting [1] was 8.2 µM [rising, partial curve]. Moreover, the AC50 under setting [2] is 0.146 µM [rising, full curve, poor fit].
Turning to `CCc1ccc(N(C(=O)c2snc(C(N)=O)c2N)C(C(=O)NCC2CCCO2)c2ccco2)cc1` (centres undefined), the cell number change came to 6.85%. For the same compound, the AC50 under setting [2] is 2.06 µM [rising, partial curve].
As for `Cc1cc(NS(=O)(=O)c2ccc(NC(=O)Nc3ccc4c(c3)OCO4)cc2)no1`, the cell number change is 14.3%.
With `COc1cccc(C2CC(C(F)(F)F)n3nc(C(=O)NCc4cccnc4)cc3N2)c1` (centres undefined), the cell number change was -16.9%.
`O=C(Cc1ccccc1)N/N=C/C=C/c1ccccc1[N+](=O)[O-]`: the cell number change was -37%. Moreover, the AC50 under setting [1] was 9.2 µM [falling, partial curve]. The AC50 under setting [2] is 10.3 µM [falling, partial curve, poor fit].
For the compound `Cc1ccc(-c2cnc3c(Cl)c(C)nn3c2)cc1`, the cell number change is 12.8%.
Take `CNS(=O)(=O)c1cccc(C(=O)OCCCC(=O)c2ccccc2)c1`: the cell number change was -53.8%. Further, under setting [1], the AC50 was 0.184 µM [falling, full curve, poor fit].
On to `O=C(CN(Cc1ccccc1)C(=O)c1cc2c(s1)CCC2)NCc1cccs1`, for which the cell number change is -15.1%. Moreover, under setting [2], the AC50 is 5.8 µM [falling, full curve, poor fit].
Regarding `O=C(Nc1cc2c3c(c1)C1CCCC1CN3CC1CCCC21)c1ccc([N+](=O)[O-])cc1` (centres undefined), the cell number change is -93%. Moreover, under setting [1], the AC50 is 18.4 µM [falling, partial curve]. Also, the AC50 under setting [2] was 29.1 µM [falling, single point].
Turning to `O=C(NNc1ccc([N+](=O)[O-])cc1)c1ccccc1Cl`, the cell number change amounted to 18.5%. In addition, under setting [2], the AC50 was 29.1 µM [rising, single point].
For the compound `Cc1cc(=O)oc2cc(OC(C)C(=O)NCC3CCCO3)ccc12` (centres undefined), the cell number change was determined as 17.5%. Under setting [1], the concentration at half-maximal activity (AC50) is 2.91 µM [falling, single point].
On to `CSc1ccc(C#N)cc1NC(=O)c1ccccc1`, for which the cell number change turned out to be 6.33%.
Consider `COC(=O)CC(NC(=O)c1ccco1)c1ccc(C(C)C)cc1` (centres undefined), for which the cell number change is 17.4%. For the same compound, the AC50 under setting [2] was 6.51 µM [falling, single point].
For the compound `COC(=O)CCc1c(C)nc(N)[nH]c1=O`, the cell number change is -18.4%. Moreover, the concentration at half-maximal activity (AC50) under setting [1] was 0.651 µM [falling, full curve, poor fit]. Under setting [2], the AC50 was 16.4 µM [falling, partial curve].
